Experiment [1] addresses TRPV6mRFP (TRPV6 fused to mRFP) (UniProt Q9H1D0). Description: co-IP; HEK293 cells co-transfected with TRPV6mRFP and IGF2ReGFP; RIPA lysate (150 mM NaCl, 50 mM Tris-HCl pH 8.0, 5 mM EDTA, 1% NP-40, 0.1% SDS, 0.5% deoxycholate); overnight at 4 °C with Dynabeads Protein A/G carrying TRPV6 antibody 429 or GFP antibody (rabbit IgG or mouse IgG as controls); Western blot with antibody 429 or GFP antibody. (In general: A western blot detects proteins with antibodies after separation by electrophoresis.)

By UniProt entry, the sequences of proteins in these tests, tags left out. Residues count along the entry.
UniProt Q9H1D0: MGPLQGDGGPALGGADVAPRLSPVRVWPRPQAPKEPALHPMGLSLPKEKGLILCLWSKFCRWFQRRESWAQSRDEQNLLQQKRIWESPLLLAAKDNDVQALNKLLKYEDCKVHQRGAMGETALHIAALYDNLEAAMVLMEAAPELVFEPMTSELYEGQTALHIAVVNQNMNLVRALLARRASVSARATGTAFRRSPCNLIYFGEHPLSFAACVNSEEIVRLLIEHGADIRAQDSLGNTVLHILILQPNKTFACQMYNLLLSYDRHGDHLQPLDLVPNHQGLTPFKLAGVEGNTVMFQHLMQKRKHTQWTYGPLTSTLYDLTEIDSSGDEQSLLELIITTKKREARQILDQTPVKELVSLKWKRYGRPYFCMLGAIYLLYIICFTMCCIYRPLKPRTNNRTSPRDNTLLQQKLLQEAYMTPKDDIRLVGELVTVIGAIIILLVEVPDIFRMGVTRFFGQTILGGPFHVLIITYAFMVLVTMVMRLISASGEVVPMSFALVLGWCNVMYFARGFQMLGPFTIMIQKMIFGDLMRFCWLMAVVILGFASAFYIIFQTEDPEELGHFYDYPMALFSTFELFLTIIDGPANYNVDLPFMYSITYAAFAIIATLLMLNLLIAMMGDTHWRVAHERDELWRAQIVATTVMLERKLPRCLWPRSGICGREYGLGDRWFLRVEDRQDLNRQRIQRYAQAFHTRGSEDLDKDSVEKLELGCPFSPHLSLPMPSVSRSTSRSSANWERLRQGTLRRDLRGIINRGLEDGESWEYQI
UniProt P11717, residues 41-2491: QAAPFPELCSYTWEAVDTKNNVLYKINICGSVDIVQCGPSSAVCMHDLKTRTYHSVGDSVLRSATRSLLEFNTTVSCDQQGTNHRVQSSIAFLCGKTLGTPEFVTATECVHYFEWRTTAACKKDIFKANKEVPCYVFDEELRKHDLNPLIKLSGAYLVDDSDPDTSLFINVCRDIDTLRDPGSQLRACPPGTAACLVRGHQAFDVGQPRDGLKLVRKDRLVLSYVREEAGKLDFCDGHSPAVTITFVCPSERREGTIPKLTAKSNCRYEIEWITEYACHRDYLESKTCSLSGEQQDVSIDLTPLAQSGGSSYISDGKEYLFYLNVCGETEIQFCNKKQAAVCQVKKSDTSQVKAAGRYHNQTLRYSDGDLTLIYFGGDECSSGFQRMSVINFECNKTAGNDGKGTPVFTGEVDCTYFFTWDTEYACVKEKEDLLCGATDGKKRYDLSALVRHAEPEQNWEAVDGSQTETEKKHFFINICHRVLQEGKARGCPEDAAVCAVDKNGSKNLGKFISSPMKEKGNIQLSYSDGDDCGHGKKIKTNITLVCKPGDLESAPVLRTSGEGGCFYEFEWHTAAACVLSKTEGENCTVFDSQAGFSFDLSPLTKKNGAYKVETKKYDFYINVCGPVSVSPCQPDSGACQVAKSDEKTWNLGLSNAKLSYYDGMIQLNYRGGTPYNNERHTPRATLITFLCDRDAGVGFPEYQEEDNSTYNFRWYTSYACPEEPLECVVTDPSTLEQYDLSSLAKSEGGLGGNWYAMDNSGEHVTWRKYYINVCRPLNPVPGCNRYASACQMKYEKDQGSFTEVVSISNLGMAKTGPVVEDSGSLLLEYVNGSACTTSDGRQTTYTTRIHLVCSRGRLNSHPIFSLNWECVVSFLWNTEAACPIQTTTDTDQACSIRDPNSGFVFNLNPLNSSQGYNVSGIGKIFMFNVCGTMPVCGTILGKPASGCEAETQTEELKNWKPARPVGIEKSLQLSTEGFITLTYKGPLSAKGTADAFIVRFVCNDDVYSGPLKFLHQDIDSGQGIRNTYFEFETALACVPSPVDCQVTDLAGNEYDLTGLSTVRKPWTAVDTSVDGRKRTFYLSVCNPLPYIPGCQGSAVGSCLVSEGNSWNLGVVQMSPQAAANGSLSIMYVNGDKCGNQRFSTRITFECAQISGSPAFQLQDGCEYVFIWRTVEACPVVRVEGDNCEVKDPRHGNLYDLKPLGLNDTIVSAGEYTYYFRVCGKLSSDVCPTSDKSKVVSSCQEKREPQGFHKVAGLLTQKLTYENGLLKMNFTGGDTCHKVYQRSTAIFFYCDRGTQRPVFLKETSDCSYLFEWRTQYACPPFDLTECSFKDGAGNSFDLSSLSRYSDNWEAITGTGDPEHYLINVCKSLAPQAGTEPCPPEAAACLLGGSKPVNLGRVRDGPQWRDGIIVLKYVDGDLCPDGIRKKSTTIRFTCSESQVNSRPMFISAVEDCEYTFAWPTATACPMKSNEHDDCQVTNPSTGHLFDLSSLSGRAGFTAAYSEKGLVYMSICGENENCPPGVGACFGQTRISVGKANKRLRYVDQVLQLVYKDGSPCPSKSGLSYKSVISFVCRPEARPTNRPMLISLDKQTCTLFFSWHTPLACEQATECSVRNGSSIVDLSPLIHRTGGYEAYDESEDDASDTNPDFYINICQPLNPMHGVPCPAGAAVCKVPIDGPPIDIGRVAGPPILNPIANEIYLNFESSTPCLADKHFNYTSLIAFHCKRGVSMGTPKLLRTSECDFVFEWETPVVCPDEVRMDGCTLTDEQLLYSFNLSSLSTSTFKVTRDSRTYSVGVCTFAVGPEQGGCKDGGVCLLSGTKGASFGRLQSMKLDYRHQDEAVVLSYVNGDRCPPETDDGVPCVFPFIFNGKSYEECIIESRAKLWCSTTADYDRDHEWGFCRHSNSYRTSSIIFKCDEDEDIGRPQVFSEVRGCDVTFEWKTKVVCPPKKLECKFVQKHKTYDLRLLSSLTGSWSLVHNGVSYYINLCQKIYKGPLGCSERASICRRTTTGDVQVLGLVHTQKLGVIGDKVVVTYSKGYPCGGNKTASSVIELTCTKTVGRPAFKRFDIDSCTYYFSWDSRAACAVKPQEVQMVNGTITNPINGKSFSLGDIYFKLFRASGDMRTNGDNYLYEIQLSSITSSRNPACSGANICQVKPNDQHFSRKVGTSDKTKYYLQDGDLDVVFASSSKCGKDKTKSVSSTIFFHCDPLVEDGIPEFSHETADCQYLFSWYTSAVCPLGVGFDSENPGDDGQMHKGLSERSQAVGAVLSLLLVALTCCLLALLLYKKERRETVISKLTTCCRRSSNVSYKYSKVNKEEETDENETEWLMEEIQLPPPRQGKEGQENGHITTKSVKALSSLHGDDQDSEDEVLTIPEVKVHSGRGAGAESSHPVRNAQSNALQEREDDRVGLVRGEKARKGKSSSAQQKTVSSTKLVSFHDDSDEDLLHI

The target of experiment [2] is IGF2ReGFP (cation independent mannose-6-phosphate receptor, CI-M6PR/IGF2R, fused to eGFP) (human (cloned from BeWo cDNA)) (UniProt P11717). Described as above.

No constants are given. Whether binding was seen depends on the method and setting. In cells and extracts the contact can be indirect. Some results given as binding are weak or reduced against the parent protein; the word gives no strength.

For “IGF2ReGFP (cation independent mannose-6-phosphate receptor, CI-M6PR/IGF2R, fused to eGFP) (from UniProt P11717 41-2491)”, the binding entry in experiment [1] is listed as “binds”.

Regarding “TRPV6mRFP (TRPV6 fused to mRFP) (from UniProt Q9H1D0 1-765)”, the binding entry in experiment [2] is given as “binds”.

The record behind these values is article PMC12837008.
